Source: patent publication US9005627B2 (Anergis S.A., priority 2011, dated 2015)

Assay: general procedure: Fmoc solid-phase peptide synthesis
Conditions: whole synthesis, scale of the general procedure research scale of the general procedure

Row | Sequence | final purity (method not given)
1 | AGSDGDAISISGSSQIWIDHCSLSKSVDGLVDAKLGTTRLTVSNSLFTQHQFVLLFGAGDENIEDRGMLATVAFNTFTDN | 60%
2 | MHDVKVNPGGLIKSNDGPAAPRAGSDGDAISISGSSQIWIDHCSLSKSVDGLVDAKLGTTR | 60%
3 | VDAKLGTTRLTVSNSLFTQHQFVLLFGAGDENIEDRGMLATVAFNTFTDN | 70%

Where a sequence shows no end group, the ends are not given. No end group written: not given here.
